Out of some 310,000 compounds screened, about 17,000 (5.5%) were called active. Inconclusive means that the source gave no clear call. Such entries were picked first, then a sample of the others. Calls follow the shape of the dose curve; as a rule, active = well fitted inhibition curve with a large enough effect; inconclusive = small, poorly fitted or top-dose-only effect, or effect the other way; inactive = no such curve, though single readings can be large or run the other way. Potencies beside an inconclusive call are fits to weak or partial responses and may not hold up.
Target: Nuclear receptor ROR-gamma (Mus musculus) (UniProt P51450)
Experiment: qHTS for inhibitors of ROR gamma transcriptional activity; also: nearly all actives have a fitted effect of over 60% in size
Conditions: Drosophila S2 Gal4-RORgamma UAS-luciferase reporter, 20 h; activity change, negative = inhibition: at 53.6 µM (top of the series)
Outline: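 Drosophila Schneider cells stably carrying a metallothionein-driven Gal4 DBD–ROR gamma fusion and a UAS-Photinus luciferase reporter were exposed to compound for 1 hr, then induced with copper sulfate (700 uM final) for 20 hr at ambient temperature before luminescence reading.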
% is scaled to controls: 0 for no effect and ±100 for the full control effect; potency is read from the fitted curve at half-maximal effect.

Sequences of proteins named here, by UniProt entry; tags and fusion partners are left off. A change or cut given only in a name is not applied to a line headed by its entry.
UniProt P51450: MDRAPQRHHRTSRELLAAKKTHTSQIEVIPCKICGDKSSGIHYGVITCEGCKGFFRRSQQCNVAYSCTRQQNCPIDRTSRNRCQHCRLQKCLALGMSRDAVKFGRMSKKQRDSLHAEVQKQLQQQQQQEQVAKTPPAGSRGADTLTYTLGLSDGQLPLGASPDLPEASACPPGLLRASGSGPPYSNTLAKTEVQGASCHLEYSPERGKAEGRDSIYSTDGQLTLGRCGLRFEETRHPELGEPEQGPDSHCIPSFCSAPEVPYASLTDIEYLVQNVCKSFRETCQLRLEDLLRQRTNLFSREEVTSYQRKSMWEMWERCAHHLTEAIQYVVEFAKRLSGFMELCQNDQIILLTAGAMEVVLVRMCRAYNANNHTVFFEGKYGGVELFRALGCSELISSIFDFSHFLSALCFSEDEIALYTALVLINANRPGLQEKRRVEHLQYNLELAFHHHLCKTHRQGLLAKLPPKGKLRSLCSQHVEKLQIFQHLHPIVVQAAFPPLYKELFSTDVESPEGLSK

Row | SMILES | Potency | activity change, negative = inhibition
1 | CCOc1ccccc1Nc1nc(-c2sc(NC(=O)c3cccc(Cl)c3)nc2C)cs1 | active: 11.2 µM | –
2 | O=C1CC(NCC2CCCO2)C(=O)N1c1ccc(Cl)cc1 (configuration not stated) | inconclusive: 14.1 µM [inhibitor, single point] | –
3 | Cc1cccc(C)c1NC(=S)N(Cc1cccs1)C1CCCC1 | inconclusive: 11.2 µM [inhibitor, single point] | –
4 | OCc1ccccc1CNCc1ccccc1 | – | inactive: 12.7%
5 | FC(F)(F)c1nc(NCc2ccccc2)c2nnn(Cc3ccccc3)c2n1 | active: 8.91 µM | –
6 | Cc1ccc(/C=N/n2c(-c3ccco3)n[nH]c2=S)s1 | active: 8.91 µM | –
7 | COc1ccc(-c2nc3ccccc3o2)cc1NC(=O)c1ccc(Br)o1 | – | inactive: 20.8%
8 | CCOC(=O)Nc1ccc2nc(N3CCCCCC3)sc2c1 | inconclusive: 31.6 µM [activator, single point] | –
9 | COC(=O)c1ccccc1NC(=O)c1ccc2c(c1)CC(C)O2 (configuration not stated) | inconclusive: 31.6 µM [activator, single point] | –
10 | C[C@@H](C(=O)N1CCN(C(=O)OC(C)(C)C)CC1)n1cc(CCCN=C(NC(=O)OC(C)(C)C)NC(=O)OC(C)(C)C)nn1 | – | inactive: 17.3%
11 | COc1ccc(C2(NC(C)=O)CCN(C(=O)c3ccco3)CC2)cc1 | inconclusive: 35.5 µM [inhibitor, single point] | –
12 | O=C(CSCc1ccc(C(=O)O)cc1)Nc1ccc2ccccc2c1 | inconclusive: 11.2 µM [activator, single point] | –
13 | CCCNC(=O)c1ccccc1NC(=O)c1ccc2c(c1)NC(=O)C(C)S2 (configuration not stated) | – | inactive: -39.3%
14 | O=C(COc1ccc2c(c1)OCO2)Nc1nncs1 | inconclusive: 11.2 µM [inhibitor, partial curve] | –
15 | Cc1ccc(/C=N/N2CCN(Cc3ccccc3)CC2)cc1 | inconclusive: 1.58 µM [activator, full curve, poor fit] | –
16 | CNC(=S)NNC(=O)c1noc(C)c1C(=O)N1CCN(C(c2ccccc2)c2ccccc2)CC1 | – | inactive: -43.3%
17 | Cc1cc(C)nc(SCc2nnc(SCC(=O)Nc3ncc(C)s3)n2Cc2ccco2)n1 | inconclusive: 1.12 µM [activator, full curve] | –
18 | Cc1c(C(=O)NNc2c(Cl)cccc2Cl)n(C)oc1=O | inconclusive: 31.6 µM [activator, single point] | –
19 | O=C(CN1CCN(Cc2ccc(F)cc2Cl)C1=O)NCc1cccs1 | inconclusive: 11.2 µM [activator, partial curve] | –
20 | O=C(c1ccc(Cl)c(S(=O)(=O)N2CCCC2)c1)N1CCN(c2ccccc2)CC1 | inconclusive: 12.6 µM [activator, single point] | –
21 | CN(C)c1ccc(/C=C2/SC(=O)N(CCN=C3NS(=O)(=O)c4ccccc43)C2=O)cc1 | – | inactive: 12.9%
22 | Cc1ccc(-n2ncc(C(=O)Nc3cc(Cl)cc(Cl)c3)c2C2CCNCC2)cc1C | inconclusive: 15.8 µM [inhibitor, single point] | –
23 | CC(=O)c1ccc(N=Nc2c(C)[nH]n(-c3ccccc3)c2=O)cc1 | inconclusive: 22.4 µM [inhibitor, single point] | –
24 | Fc1ccc(-c2n[nH]c(=S)n2/N=C/c2c[nH]c3ccccc23)cc1 | inconclusive: 11.2 µM [inhibitor, partial curve] | –

Some of the entries above in another layout:

| Row | SMILES | Potency | activity change, negative = inhibition |
| --- | --- | --- | --- |
| 5 | FC(F)(F)c1nc(NCc2ccccc2)c2nnn(Cc3ccccc3)c2n1 | active: 8.91 µM | – |
| 7 | COc1ccc(-c2nc3ccccc3o2)cc1NC(=O)c1ccc(Br)o1 | – | inactive: 20.8% |
| 13 | CCCNC(=O)c1ccccc1NC(=O)c1ccc2c(c1)NC(=O)C(C)S2 (configuration not stated) | – | inactive: -39.3% |
| 21 | CN(C)c1ccc(/C=C2/SC(=O)N(CCN=C3NS(=O)(=O)c4ccccc43)C2=O)cc1 | – | inactive: 12.9% |

Following part

Row | SMILES | Potency | activity change, negative = inhibition
25 | Cc1cc(/C=N/NC(N)=S)c(C)n1-c1ccc(Br)cc1 | active: 0.562 µM | –
26 | Cc1ccc(S(=O)(=O)C2C(=O)N(C)C3(C)CC2c2ccccc2O3)cc1C (configuration not stated) | inconclusive: 5.01 µM [inhibitor, full curve, poor fit] | –
27 | CC(C)COc1ccc(-c2nn(-c3ccccc3)cc2C(=O)Nc2nccs2)cc1 | active: 2.51 µM | –
28 | C=CCn1c(/N=C/c2ccc3c(c2)OCO3)nc2ccccc21 | inconclusive: 8.91 µM [inhibitor, partial curve, poor fit] | –
29 | O=C(CSc1nnc(-c2ccccc2)o1)Nc1ccccc1F | – | inactive: -39.3%
30 | Cc1[nH][nH]c(=O)c1C(c1c(C)[nH][nH]c1=O)c1cn(C)c2ccccc12 | inconclusive: 35.5 µM [inhibitor, single point] | –
31 | CC(C)C(c1nnnn1Cc1ccc(F)cc1)N1CCSCC1 (configuration not stated) | inconclusive: 0.0447 µM [activator, full curve] | –
32 | O=C(Nc1nnc(C2CC2)o1)c1ccc(S(=O)(=O)N2CCCCC2)cc1 | active: 0.891 µM | –
33 | Cc1cc(Br)cc2c(C(=O)NCC3CCCO3)cc(-c3ccccc3)nc12 (configuration not stated) | inconclusive: 2.82 µM [activator, full curve, poor fit] | –
34 | CC(C)COc1ccc(-c2nn(-c3ccccc3)cc2/C=C2/SC(=S)N(CC(=O)O)C2=O)cc1 | inconclusive: 12.6 µM [activator, partial curve] | –
35 | Cc1nc2nc(-c3ccco3)[nH]n2c(=O)c1Cc1ccccc1 | inconclusive: 35.5 µM [activator, single point] | –
36 | Cc1ccc(-c2nnn(CC(=O)N(Cc3cccs3)C(C(=O)NC(C)(C)C)c3ccco3)n2)o1 (configuration not stated) | inconclusive: 35.5 µM [activator, single point] | –
37 | Cc1ccccc1NCC(=O)N/N=C/c1c(C)c(C(=O)c2ccc(Cl)cc2)n2ccccc12 | – | inactive: -2.23%
38 | CSc1ccc(/C=N/NC(=O)c2ccccc2Cl)cc1 | – | inactive: 10.6%
39 | Fc1ccc(Nc2nc(-c3ccncc3)cs2)cc1 | inconclusive: 3.16 µM [activator, full curve] | –
40 | Cc1cc(C)c(C(=O)NC2CCCc3c2cnn3-c2ccc(C)c(C)c2)c(=O)[nH]1 (configuration not stated) | inconclusive: 12.6 µM [activator, single point] | –
41 | CCOC(=O)c1c(C)[n+](-c2ccc(C)cc2)c(CC)c2cc(OC)c(OC)cc12 | inconclusive: 15.8 µM [activator, single point] | –
42 | Cc1c(C(=O)NC2CCCCC2)oc2ccc(F)cc12 | inconclusive: 28.2 µM [activator, single point] | –
43 | COCCN(Cc1ccccc1)C(=O)c1cc(-c2ccc(OC)c(OC)c2)nc2ccccc12 | inconclusive: 35.5 µM [inhibitor, single point] | –
45 | O=C(NNc1ccccn1)c1ccc(Cl)nc1 | active: 12.6 µM | –
46 | C/C(CC(=O)Nc1ccc2c(c1)OCCO2)=N\NC(=O)c1ccc([N+](=O)[O-])cc1Cl | inconclusive: 35.5 µM [inhibitor, single point] | –
47 | O=C(NN(c1ccccc1)c1ccccc1)c1ccccc1F | – | inactive: -22.7%
48 | COc1ccc(N2CC(C(=O)N[C@@H](C)C(=O)N3CCCCC3)CC2=O)cc1 (some centres not stated) | – | inactive: -8.28%

Row | SMILES | Potency | activity change, negative = inhibition
49 | COCCNC(=S)N/N=C(\C)c1ccc2cc(OC)ccc2c1 | active: 1 µM | –
50 | Cc1cc(Cl)ccc1OCC(=O)OCC(=O)Nc1ccc(F)c([N+](=O)[O-])c1 | inconclusive: 5.01 µM [activator, single point] | –
51 | Cc1ccc(C23CC4CC(CC(C(=O)NN)(C4)C2)C3)cc1 | inconclusive: 22.4 µM [inhibitor, single point] | –
52 | O=C(NCc1cccnc1)NC1(C(F)(F)F)Oc2ccccc2O1 | active: 10 µM | –
53 | COc1ccccc1-c1cnnc(N/N=C/c2ccc(-c3cccc(Br)c3)o2)n1 | active: 1 µM | –
54 | O=c1c2ccccc2nc(SCc2ccc([N+](=O)[O-])cc2)n1-c1ccccc1 | inconclusive: 12.6 µM [activator, partial curve, poor fit] | –
55 | CCN1CCN(S(=O)(=O)c2ccc(C(=O)Nc3sc4c(c3C(N)=O)CCN(CC)C4)cc2)CC1 | – | inactive: -17.5%
56 | CCOC(=O)c1ccc(NC(=O)c2nc[nH]c2C(=O)NCC(=O)OC(C)(C)C)cc1 | active: 7.08 µM | –
57 | CCOCC(=O)Nc1cccc(C(=O)OCC)c1 | inconclusive: 1.12 µM [activator, full curve] | –
58 | Cc1ccc(S(=O)(=O)Nc2cccc(N(C)S(C)(=O)=O)c2)cc1[N+](=O)[O-] | inconclusive: 7.94 µM [activator, partial curve, poor fit] | –
59 | CC1(C)CC(=O)C=C(NC2CCCCCCC2)C1 | inconclusive: 31.6 µM [activator, single point] | –
60 | CC(C)Cc1nnc(NC(=O)C23CC4CC(CC(C4)C2)C3)s1 | inconclusive: 35.5 µM [inhibitor, single point] | –
61 | c1ccc(-c2n[nH]c(-c3ccccn3)n2)cc1 | active: 1.12 µM | –
62 | CCOC(=O)c1c(C)cc(O)c(C)c1O | – | inactive: -18.7%
63 | CCOC(=O)CSCC(=O)N1N=C(c2cccs2)CC1c1ccc(F)cc1 (configuration not stated) | – | inactive: -16.7%
64 | CCN1CCN(c2nc(-c3ccccc3)c3ccccc3n2)CC1 | – | inactive: -36%
65 | O=C1C=C(O)CC(c2ccc(Cl)cc2)C1 (configuration not stated) | – | inactive: 10.5%
66 | CC(C)(C)C(=O)/C(=C/c1ccncc1)n1cncn1 | active: 1 µM | –
67 | S=C(Nc1ccc(Cl)cc1)NC1CC2CCC(C1)N2Cc1ccccc1 (configuration not stated) | active: 3.98 µM | –
68 | O=S1(=O)C=C(Oc2ccc3ccccc3c2)c2ccccc21 | inconclusive: 14.1 µM [activator, partial curve] | –
69 | Cc1ccccc1-c1nnn(CC(=O)Nc2ccc3c(c2)OCCO3)n1 | inconclusive: 25.1 µM [activator, partial curve, poor fit] | –
70 | CCC(=O)OCCNc1nc(-c2ccccc2)nc2ccccc12 | inconclusive: 3.55 µM [inhibitor, single point] | –
71 | CN1C(=O)C(C)(C)c2cc(S(=O)(=O)N3CCN(c4cccc(Cl)c4)CC3)ccc21 | inconclusive: 11.2 µM [activator, single point] | –
72 | COc1ccc(N2CCN(C(=O)CCc3ccc(S(=O)(=O)NC(C)(C)C)cc3)CC2)cc1 | inconclusive: 31.6 µM [activator, single point] | –

— PubChem BioAssay AID2551 (National Center for Advancing Translational Sciences (NCATS), 2010)
